The values below come from publication doi:10.1101/2022.07.14.499993.

By UniProt entry, the sequences of proteins in these tests, tags left out. Residues count along the entry.
UniProt P40189, residues 24-618: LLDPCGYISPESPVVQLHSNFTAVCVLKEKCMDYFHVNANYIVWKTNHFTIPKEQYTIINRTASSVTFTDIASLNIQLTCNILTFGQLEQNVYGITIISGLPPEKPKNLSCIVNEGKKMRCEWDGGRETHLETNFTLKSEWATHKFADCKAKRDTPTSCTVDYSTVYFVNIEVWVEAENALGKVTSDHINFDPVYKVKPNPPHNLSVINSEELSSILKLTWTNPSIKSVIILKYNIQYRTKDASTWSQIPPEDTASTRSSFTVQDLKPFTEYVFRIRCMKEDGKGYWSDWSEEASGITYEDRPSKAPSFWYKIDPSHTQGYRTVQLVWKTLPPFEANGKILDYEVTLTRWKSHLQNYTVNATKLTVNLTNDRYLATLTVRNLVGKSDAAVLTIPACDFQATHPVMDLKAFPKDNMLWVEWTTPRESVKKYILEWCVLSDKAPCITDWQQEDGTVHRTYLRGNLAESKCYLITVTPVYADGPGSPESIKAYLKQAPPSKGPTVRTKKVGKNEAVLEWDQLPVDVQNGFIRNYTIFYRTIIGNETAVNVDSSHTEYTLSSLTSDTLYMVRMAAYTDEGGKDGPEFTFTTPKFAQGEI

Results are given in words; binding and its absence hold for the method and conditions named. Some results given as binding are weak or reduced against the parent protein; the word gives no strength. Sequences can lack the tags named with a protein.

The experiment concerns the target T1, IL-11/IL-11Rα fusion (interleukin and receptor connected with a (GGGGS)3 linker) (UniProt Q14626).
T1 sequence: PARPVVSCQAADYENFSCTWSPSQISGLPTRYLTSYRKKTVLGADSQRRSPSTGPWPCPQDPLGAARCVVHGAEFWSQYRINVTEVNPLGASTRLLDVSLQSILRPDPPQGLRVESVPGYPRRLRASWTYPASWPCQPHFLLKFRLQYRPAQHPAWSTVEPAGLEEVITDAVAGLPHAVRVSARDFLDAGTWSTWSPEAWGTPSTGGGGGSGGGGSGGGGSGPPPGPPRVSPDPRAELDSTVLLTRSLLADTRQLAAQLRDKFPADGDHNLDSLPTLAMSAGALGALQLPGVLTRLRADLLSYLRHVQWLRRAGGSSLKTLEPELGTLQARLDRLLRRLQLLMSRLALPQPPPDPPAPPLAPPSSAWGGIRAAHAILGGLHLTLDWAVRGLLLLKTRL
In words: HDX-MS.

Take “human glycoprotein 130 (amino acids 24-618) (from UniProt P40189 24-618) (receptor)”: the binding result is reported as “binds”.
